Primary screen of a compound library

Chains of the proteins cited; added tags and fusions are not shown. Residues count along the entry.
UniProt I6X8D2, whole entry: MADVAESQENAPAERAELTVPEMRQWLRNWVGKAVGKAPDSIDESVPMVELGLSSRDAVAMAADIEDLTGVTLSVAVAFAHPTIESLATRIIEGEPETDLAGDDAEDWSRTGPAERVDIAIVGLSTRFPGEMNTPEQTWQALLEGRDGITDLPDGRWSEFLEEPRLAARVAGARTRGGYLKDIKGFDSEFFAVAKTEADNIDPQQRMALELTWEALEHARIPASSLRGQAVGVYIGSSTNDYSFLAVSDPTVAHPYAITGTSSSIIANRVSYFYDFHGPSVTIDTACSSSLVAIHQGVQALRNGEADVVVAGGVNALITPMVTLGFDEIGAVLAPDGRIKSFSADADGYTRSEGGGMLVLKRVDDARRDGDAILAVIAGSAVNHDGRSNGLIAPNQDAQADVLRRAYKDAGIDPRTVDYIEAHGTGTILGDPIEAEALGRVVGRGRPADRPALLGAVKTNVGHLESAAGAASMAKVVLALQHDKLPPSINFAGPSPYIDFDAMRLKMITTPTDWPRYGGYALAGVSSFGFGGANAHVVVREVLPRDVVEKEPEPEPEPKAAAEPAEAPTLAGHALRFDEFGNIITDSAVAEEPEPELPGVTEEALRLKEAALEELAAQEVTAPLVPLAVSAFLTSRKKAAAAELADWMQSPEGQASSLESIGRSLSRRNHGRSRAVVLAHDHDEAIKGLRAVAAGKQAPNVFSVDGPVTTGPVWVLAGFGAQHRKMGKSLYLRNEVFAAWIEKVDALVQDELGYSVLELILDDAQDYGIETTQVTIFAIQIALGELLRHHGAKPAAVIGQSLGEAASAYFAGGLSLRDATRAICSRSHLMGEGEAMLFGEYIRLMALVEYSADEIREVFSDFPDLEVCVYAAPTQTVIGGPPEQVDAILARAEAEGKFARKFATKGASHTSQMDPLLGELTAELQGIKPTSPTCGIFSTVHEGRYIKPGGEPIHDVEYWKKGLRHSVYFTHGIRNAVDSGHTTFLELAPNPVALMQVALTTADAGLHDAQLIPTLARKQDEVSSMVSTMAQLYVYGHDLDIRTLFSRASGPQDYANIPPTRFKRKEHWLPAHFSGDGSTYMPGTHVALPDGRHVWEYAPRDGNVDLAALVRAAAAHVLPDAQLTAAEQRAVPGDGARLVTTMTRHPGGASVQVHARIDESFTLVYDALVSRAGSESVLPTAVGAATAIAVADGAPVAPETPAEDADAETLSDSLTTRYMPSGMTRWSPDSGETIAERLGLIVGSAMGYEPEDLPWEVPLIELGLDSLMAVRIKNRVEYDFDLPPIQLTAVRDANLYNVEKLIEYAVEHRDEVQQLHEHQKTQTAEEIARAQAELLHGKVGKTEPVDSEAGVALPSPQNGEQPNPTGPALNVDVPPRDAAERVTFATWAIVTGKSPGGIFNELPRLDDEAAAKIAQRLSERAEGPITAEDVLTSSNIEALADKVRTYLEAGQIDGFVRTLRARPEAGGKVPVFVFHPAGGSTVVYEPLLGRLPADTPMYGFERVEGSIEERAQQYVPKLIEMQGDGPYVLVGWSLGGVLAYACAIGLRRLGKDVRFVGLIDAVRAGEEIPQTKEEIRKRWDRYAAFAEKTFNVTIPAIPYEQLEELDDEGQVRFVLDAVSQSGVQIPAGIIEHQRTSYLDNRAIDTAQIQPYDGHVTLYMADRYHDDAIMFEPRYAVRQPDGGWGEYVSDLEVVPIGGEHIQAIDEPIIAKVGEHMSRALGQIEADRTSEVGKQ
UniProt Q8IDJ8, 1-583: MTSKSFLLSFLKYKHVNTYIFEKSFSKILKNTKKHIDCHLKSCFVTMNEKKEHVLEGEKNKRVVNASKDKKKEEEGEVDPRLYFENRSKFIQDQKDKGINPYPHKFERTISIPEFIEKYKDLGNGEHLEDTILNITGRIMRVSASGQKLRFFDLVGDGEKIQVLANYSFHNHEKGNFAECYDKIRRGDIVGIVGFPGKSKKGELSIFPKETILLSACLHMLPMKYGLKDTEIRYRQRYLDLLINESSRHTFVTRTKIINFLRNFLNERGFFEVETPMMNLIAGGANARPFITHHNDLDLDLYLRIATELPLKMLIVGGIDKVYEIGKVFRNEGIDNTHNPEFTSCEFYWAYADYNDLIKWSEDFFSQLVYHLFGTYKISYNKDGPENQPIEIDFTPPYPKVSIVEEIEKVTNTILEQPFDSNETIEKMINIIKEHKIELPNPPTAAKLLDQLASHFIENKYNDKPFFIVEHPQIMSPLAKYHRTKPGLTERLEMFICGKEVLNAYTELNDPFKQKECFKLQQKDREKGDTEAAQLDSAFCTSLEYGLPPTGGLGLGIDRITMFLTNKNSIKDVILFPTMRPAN
UniProt P9WNZ1, whole entry: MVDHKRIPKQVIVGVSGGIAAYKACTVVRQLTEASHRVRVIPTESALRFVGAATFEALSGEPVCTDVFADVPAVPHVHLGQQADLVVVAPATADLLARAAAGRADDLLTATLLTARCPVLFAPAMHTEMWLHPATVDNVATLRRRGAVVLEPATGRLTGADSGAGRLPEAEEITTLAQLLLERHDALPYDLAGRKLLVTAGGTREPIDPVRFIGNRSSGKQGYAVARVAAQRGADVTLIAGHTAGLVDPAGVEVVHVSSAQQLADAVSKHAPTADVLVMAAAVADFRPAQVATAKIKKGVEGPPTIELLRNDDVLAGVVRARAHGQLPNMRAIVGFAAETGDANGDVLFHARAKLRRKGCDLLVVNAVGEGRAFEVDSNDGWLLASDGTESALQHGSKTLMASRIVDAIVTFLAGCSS

Data taken from ChEMBL document CHEMBL3988442, “University of Dundee, Small-Polar-MMV Screening Library” (2021).

Toxoplasma: 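Assay of Toxoplasma gondii numbers, read through their beta-galactosidase reporter with a colour substrate. Tested at 10 µM. The record gives no direction; the compounds picked for IC50 retests had high values, so higher reads as fewer parasites. About 67,000 compounds were tested under these conditions; 0.38% (about 260) showed 50% or more at least once.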
Pks13 thioesterase: 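Enzyme assay of the thioesterase domain of polyketide synthase 13; the read-out is not stated. Target: Polyketide synthase Pks13, Mycobacterium tuberculosis (UniProt I6X8D2). Tested at 30 µM. Higher reads as stronger inhibition (inferred from which compounds were picked for retests). Of about 67,000 compounds tested this way, about 300 (0.46%) reached 50% or more in at least one test.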
PfKRS1: 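Enzyme assay of the cytosolic lysyl-tRNA synthetase in 384-well plates, read by luminescence. Target: Lysine-tRNA ligase, Plasmodium falciparum 3D7 (UniProt Q8IDJ8). Tested at 30 µM. Direction is inferred from only a few compounds that gave an IC50; most scored high, so higher reads as stronger inhibition. Of about 69,000 compounds tested this way, about 49 (0.071%) reached 50% or more in at least one test.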
CoaBC: 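Enzyme assay of CoaBC with a phosphate dye (Biomol Green) read at 650 nm. Target: Coenzyme A biosynthesis protein CoaBC, Mycobacterium tuberculosis (UniProt P9WNZ1). Concentration: 30 µM. Direction is inferred from only a few compounds that gave an IC50; most scored high, so higher reads as stronger inhibition. Most strong results did not repeat in a second test. Size under these conditions: about 67,000 compounds, about 40 of them at 50% or above in at least one test.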

Values are the deposited “Percent Effect”, in %. The record does not define 0% and 100%; most values in the screen are far below 50% and negative numbers occur (in some assays of this library far below -100). This is an unselected part of the compounds tested. A dash means the value is not listed here; it may have been measured.

Compound | Toxoplasma | Pks13 thioesterase | PfKRS1 | CoaBC
N#Cc1cnc(NCCCN2C(=O)COc3ccccc32)c(Cl)c1 | 0.641 | -49.47 | -1.66 | 4.497
NC(=O)C1CCN(C(=O)Cn2ccc3cc(Br)ccc32)CC1 | -7.531 | -15.3 | -2.618 | 0.2525
CCOC(=O)CSc1ccc(-c2nc(CC)no2)cn1 | -1.195 | 32.44 | 5.967 | 0.8783
CCc1cnc(CNC(=O)N2CCCC(c3ncc[nH]3)C2)s1 (centres unmarked) | 2.717 | 4.28 | 6.317 | 7.278
COc1cccc(S(=O)(=O)N2CCOC(C)(C(N)=O)C2)c1 (centres unmarked) | -0.9864 | 3.995 | -0.7473 | 4.116
O=C(O)C(F)(F)F.[H][C@@]12COC[C@]1([H])[C@@H](OCC(=O)N(C)C)CN2Cc1cccc(C#N)c1 | -17.18 | - | - | -
Cc1ccc2oc(=O)n(CCC(=O)N3CCN(C)C(=O)C3)c2c1 | -13.04 | -4.666 | 4.663 | 2.703
Cc1ccc(CN2C(=O)CC[C@]23CC[C@@H](NC2CCOC2)CC3)cc1 (some centres unmarked) | - | -23.53 | 4.681 | 4.326
c1ccc(-c2nc(CNCC3CCCN3c3cccnn3)co2)cc1 (centres unmarked) | 19.79 | -38.52 | 3.329 | 7.985
Cc1cc2nc(C(C)C)cc(N(C)CC3CCCN(CCO)C3)n2n1 (centres unmarked) | 0.6034 | 4.352 | -1.173 | 7.807
O=C(NCCCn1ccnc1)N1CCCC1c1cccs1 (centres unmarked) | -18.42 | -67.61 | 2.977 | 2.85
[H][C@@]12OCCN(CCN3CCCCC3)[C@@]1([H])CC[C@@H]2OCc1ccccn1 | 4.428 | - | - | -
Cc1cc(S(=O)(=O)N2CCCc3cc(F)cc(F)c32)sc1C(=O)O | -2.313 | -8.218 | 4.694 | -9.821
O=C(CNC1(c2ccc(Cl)cc2)CCOCC1)NC1CCCC1 | 0.0672 | -8.259 | -1.815 | -2.804
CC1CCN(S(=O)(=O)N2C[C@H](c3ccccc3)[C@@H](N)C2)CC1 | -3.471 | 2.617 | -1.299 | -0.1209
C[S+]([O-])CCNCc1ccc(OCc2cscn2)cc1 (centres unmarked) | -5.294 | -11.81 | 5.205 | -0.9662
CNC(=O)[C@@H]1CN(C(=O)C2CCC2)C[C@H]1c1ccnc(N2CCCC2)n1 | - | 2.017 | 0.8713 | 3.425
NC(=O)CCn1cc(CNCCCc2csc(N)n2)c2ccccc21 | 1.679 | -11.19 | -0.2977 | -31.45
CC(C)(C)C(=O)NCCC(=O)NC(C)(C)c1ccc2c(c1)OCCO2 | -1.423 | -12.2 | -0.8462 | -0.2132
CN(C)C(=O)c1ccc2ccc(N3CCN(CC4CC4)CC3)n2c1 | 6.25 | -16.17 | -3.518 | 6.821
Cc1nc(C)n(C2CCCN(C(=O)c3csnn3)C2)n1 (centres unmarked) | -1.091 | -13.91 | 2.842 | 0.5931
CC(C)C(NC(=O)c1ccccc1)C(=O)N1CCC2(CC1)OCCO2 (centres unmarked) | -2.841 | -19.56 | 6.61 | -5.366
CCc1cnc(C)nc1NCCN1CCCCCC1 | -8.9 | -6.453 | 5.012 | -5.909
O=C(Cc1ccccc1)N1CCC2(CC(=O)N(c3cccc(F)c3)C2)C1 (centres unmarked) | -2.073 | -9.182 | 1.789 | 1.762
Cn1cnc(S(=O)(=O)N2CCCc3cc(F)cc(F)c32)c1Cl | 8.605 | -24.91 | 8.806 | 2.066
O=C(O)C(F)(F)F.[H][C@@]12CCN(CCOC)C(=O)[C@@]1([H])CN(Cc1ccc(C)s1)C2 | -5.141 | - | - | -
Cc1nc(C)n(CC2CCCN(CC(=O)Nc3cccnc3)C2)n1 (centres unmarked) | 24.16 | -6.257 | 4.97 | 1.02
CCn1cc(S(=O)(=O)N2CCC(C)CC2)c(C)n1 | -7.414 | -3.322 | 1.317 | 4.337
[H][C@@]12CN(c3ncc(Cl)cc3F)C[C@]1(C(=O)O)CN(CC1CC1)C2=O | -9.654 | - | - | -
O=C(O)C(F)(F)F.[H][C@]12CN(c3ncccn3)C[C@@]1(C(=O)O)CCCN(C1CCOC1)C2 (some centres unmarked) | 3.821 | - | - | -
CCn1ccnc1CN1CCCC(CO)(CCCc2ccccc2)C1 (centres unmarked) | -1.217 | -14.27 | 4.216 | 8.155
CCc1ncc(C(=O)N2CCCC2Cn2cccn2)s1 (centres unmarked) | -20.1 | -19.49 | -2.535 | 4.348
O=C1CCCN1c1cccc(N2CCC(NCCc3cscn3)CC2)c1 | -6.17 | -36.95 | 2.729 | 4.436
CCn1cnnc1CNC(=O)NC(c1ccccc1)C1CCCC1 (centres unmarked) | -1.212 | -38.84 | 1.766 | 1.927
[H][C@]12CCC[C@@]1(COCc1ccccn1)CN(C(=O)c1cscn1)C2 | -30.44 | - | - | -
CCNS(=O)(=O)c1ccc(C)c(C(=O)N(C)Cc2ccco2)c1 | -1.454 | -19.99 | -3.999 | 2.954
O=C(O)C(F)(F)F.O=C(O)C(F)(F)F.[H][C@@]12OCCC[C@]1([H])N(Cc1ccc(C)o1)C[C@@H]2N1CCOCC1 | 8.003 | - | - | -
O=C(CN1CCN(CCO)CC1)NC(C1CC1)C1CC1 | -0.6002 | -1.064 | 5.334 | 1.613
Cc1noc(C)c1CN1C[C@H](OCC2CC2)[C@H]2COC[C@H]21 | - | -30.73 | 0.7757 | 1.018
[H][C@@]12CS(=O)(=O)C[C@]1([H])N(C(=O)CCn1cc(Cl)cn1)CCN2C(=O)CC | -39.71 | - | - | -
Cc1cccc(CN2C(=O)C[C@H]3[C@@H]2CCN3Cc2ccccn2)n1 | - | -2.594 | -1.346 | 1.935
COc1ccc(CNc2nncs2)cc1F | 2.363 | -35.49 | 4.631 | 1.266
O=S(=O)(Cc1nc(C2CC2)no1)c1cc(F)ccc1F | 5.175 | 7.947 | 5.113 | 4.3
Cc1oc(-c2ccsc2)nc1CN1CCCC(c2ccnn2C)C1 (centres unmarked) | 13.6 | -1.956 | 3.612 | 4.225
O=C1CCCCN1CCc1nc(C2(c3ccc(F)cc3)CCOC2)no1 (centres unmarked) | -1.561 | -8.348 | 5.711 | -0.1258
c1ccc(CN2CCn3c(Cn4cncn4)cnc3C2)nc1 | - | -4.25 | 3.224 | 3.25
COCc1cc(CNc2cnn(CC(F)F)c2)ccc1OC | -7.351 | 19.74 | 1.681 | -1.595
CS(=O)(=O)Nc1cccc(C(=O)Nc2ccc3c(c2)C(=O)NC3)c1 | -1.348 | -33.65 | 3.091 | 4.689
Cc1cnn(CC2CCCN2Cc2nccn2CC(F)(F)F)c1 (centres unmarked) | 8.514 | -34.57 | 0.6297 | -5.094
CC(C)n1ccnc1C1CCN(C(=O)c2ccccn2)CC1 | -8.921 | -14.98 | 3.836 | 0.1206
O=C(c1cscn1)N1CCC(Cc2cnc3[nH]ccc3c2)C1 (centres unmarked) | 2.7 | -4.308 | 0.8532 | 4.902
CC(=O)N1CCCC1c1cc(N2CCN(CC(C)(C)C)CC2)cc(C)n1 (centres unmarked) | -14.39 | 12.88 | 0.5806 | 1.942
CC(C)n1cc(-c2c(C#N)c(N)nc3c2COCC3)cn1 | - | -7.221 | -4.755 | -5.225
CCc1cc(N2CCNCC2)n2nc(C)c(C)c2n1 | -2.87 | -27.52 | 1.789 | -2.784
CNS(=O)(=O)Cc1ccc(CNC(=O)c2cccc(C)n2)cc1 | 3.917 | -7.405 | -0.313 | -2.892
Cc1cccc(C2(CNC(=O)C(C)S(C)(=O)=O)CCCC2)c1 (centres unmarked) | 0.1604 | 3.567 | 7.428 | 0.9823
Cc1nccn1CCCNC(=O)C1CCCCN1Cc1ccncc1 (centres unmarked) | -4.59 | -37.73 | 0.7351 | -
[H][C@]12CCN(c3ccccc3)C[C@@]1([H])OCCN(C(=O)c1ccco1)C2 | 4.14 | - | - | -
CCn1c(C)cc(C(=O)NCc2ccc(CS(C)(=O)=O)cc2)c1C | -3.527 | -37.07 | 3.018 | -5.128
N#Cc1ccc(CN(CC(N)=O)C2CCCC2)cc1 | -4.802 | -15.85 | 2.073 | 4.839
CC(C)=CCN1CCN(C(=O)COc2ccccc2)[C@H]2CS(=O)(=O)C[C@H]21 | - | -8.577 | 0.5593 | 8.436
O=C(CCCOCc1ccccc1)N1CCCC(c2ncc[nH]2)C1 (centres unmarked) | -14.29 | -1.669 | 6.037 | 5.949
CC(=O)N1CCCC(C(=O)c2cnn(-c3ccc(F)cc3)c2N)C1 (centres unmarked) | 11.75 | 10.17 | 0.3557 | 2.365
O=C(C1CC1)N1C[C@H]2CCCN(S(=O)(=O)c3cccc(F)c3)[C@H]2C1 | - | -2.591 | 0.4698 | -1.914
COc1cc(CNCC(C)O)cc(Cl)c1OCc1ccc(C)cc1 (centres unmarked) | - | -7.487 | -3.469 | -46.97
CN(C)CCC1CCCCN1Cc1cnn(C)c1C1CC1 (centres unmarked) | 2.087 | 5.155 | 5.936 | -4.545
[H][C@]12CCC[C@@H](CN3CCCC3)[C@@]1([H])CN(c1cc(OC)ncn1)C2 | -10.41 | - | - | -
O=S(=O)(Cc1cc(-c2ccccc2)no1)CC1CCCO1 (centres unmarked) | 10.83 | 4.858 | 2.918 | -3.14

Repeated from the top, 6 entries:

{"compound": "N#Cc1cnc(NCCCN2C(=O)COc3ccccc32)c(Cl)c1", "Toxoplasma": 0.641, "Pks13 thioesterase": -49.47, "PfKRS1": -1.66, "CoaBC": 4.497}
{"compound": "NC(=O)C1CCN(C(=O)Cn2ccc3cc(Br)ccc32)CC1", "Toxoplasma": -7.531, "Pks13 thioesterase": -15.3, "PfKRS1": -2.618, "CoaBC": 0.2525}
{"compound": "CCOC(=O)CSc1ccc(-c2nc(CC)no2)cn1", "Toxoplasma": -1.195, "Pks13 thioesterase": 32.44, "PfKRS1": 5.967, "CoaBC": 0.8783}
{"compound": "CCc1cnc(CNC(=O)N2CCCC(c3ncc[nH]3)C2)s1", "stereo": "centres unmarked", "Toxoplasma": 2.717, "Pks13 thioesterase": 4.28, "PfKRS1": 6.317, "CoaBC": 7.278}
{"compound": "COc1cccc(S(=O)(=O)N2CCOC(C)(C(N)=O)C2)c1", "stereo": "centres unmarked", "Toxoplasma": -0.9864, "Pks13 thioesterase": 3.995, "PfKRS1": -0.7473, "CoaBC": 4.116}
{"compound": "O=C(O)C(F)(F)F.[H][C@@]12COC[C@]1([H])[C@@H](OCC(=O)N(C)C)CN2Cc1cccc(C#N)c1", "Toxoplasma": -17.18}